Assay results reported in the supplement of paper PMC10331698.
± gives the standard deviation of the averaged measurements. Small differences around the control level are noise.

Assays:
Assay in all cases: level (log10 ratio to DMSO vehicle control); higher = higher biomarker level / cell amount than vehicle control
[1] = compound: O=C(O)C(F)(F)C(F)(F)C(F)(F)C(F)(F)C(F)(F)C(F)(F)C(F)(F)C(F)(F)Cl [9-Chloro-perfluorononanoic acid]; conditions: in DMSO
Description: (§1)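 BioMAP Diversity Plus panel of 12 human primary cell co-culture systems (3C, 4H, LPS, SAg, BT, BF4T, BE3C, CASM3C, HDF3CGF, KF3CT, MyoF, Mphg). Compounds were added 1 h before stimulation and left for 24 h (MyoF 48 h; BT 72 h for soluble read-outs or 6 d for IgG). Biomarkers were read by ELISA, cytotoxicity by SRB, PBMC viability and proliferation by Alamar Blue. Each well value was divided by the mean of 8 DMSO control wells on the same plate and log10 transformed; duplicate blinded samples were tested at 4 concentrations.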

Nonafluoropentanamide = compound: NC(=O)C(F)(F)C(F)(F)C(F)(F)C(F)(F)F [Nonafluoropentanamide]; conditions: 2200 nM; in DMSO
Description: as §1

Tetrafluorosuccinic acid = compound: O=C(O)C(F)(F)C(F)(F)C(=O)O [Tetrafluorosuccinic acid]; conditions: 2200 nM; in DMSO
Description: as §1

[2] = compound: OCCC(F)(F)C(F)(F)C(F)(F)C(F)(F)F [4:2 Fluorotelomer alcohol]; conditions: 2200 nM; in DMSO
Description: as §1

[3] = compound: O=S(=O)(O)C(F)(F)C(F)(F)OC(F)(F)C(F)(F)F [Perfluoro(2-ethoxyethane)sulfonic acid]; conditions: 2200 nM; in DMSO
Description: as §1

[4] = compound: C=C(C)C(=O)OCCC(F)(F)C(F)(F)C(F)(F)C(F)(F)C(F)(C(F)(F)F)C(F)(F)F [(Perfluoro-5-methylhexyl)ethyl 2-methylprop-2-enoate]; conditions: in DMSO
Description: as §1

[5] = compound: C=C(C)C(=O)OCCC(F)(F)C(F)(F)C(F)(F)C(F)(F)C(F)(F)C(F)(F)C(F)(F)C(F)(F)F [8:2 Fluorotelomer methacrylate]; conditions: in DMSO
Description: as §1

Octafluoroadipamide = compound: NC(=O)C(F)(F)C(F)(F)C(F)(F)C(F)(F)C(N)=O [Octafluoroadipamide]; conditions: 2200 nM; in DMSO
Description: as §1

[6] = compound: FC(F)(F)C(F)(F)C(F)(F)C(F)(F)C(F)(F)CCI [1-Iodo-1H,1H,2H,2H-perfluoroheptane]; conditions: 2200 nM; in DMSO
Description: as §1

[7] = compound: O=S(=O)(O)CCC(F)(F)C(F)(F)C(F)(F)C(F)(F)C(F)(F)C(F)(F)F [6:2 Fluorotelomer sulfonic acid]; conditions: in DMSO
Description: as §1

[8] = compound: COC(=O)CCC(F)(F)C(F)(F)C(F)(F)C(F)(F)F [Methyl 2H,2H,3H,3H-perfluoroheptanoate]; conditions: 2200 nM; in DMSO
Description: as §1

[9] = compound: NS(=O)(=O)C(F)(F)C(F)(F)C(F)(F)C(F)(F)C(F)(F)C(F)(F)F [Perfluorohexanesulfonamide]; conditions: 2200 nM; in DMSO
Description: as §1

[10] = compound: O=C(O)CCC(F)(F)C(F)(F)C(F)(F)C(F)(F)C(F)(F)F [2H,2H,3H,3H-Perfluorooctanoic acid]; conditions: 2200 nM; in DMSO
Description: as §1

Perfluoropinacol = compound: OC(C(F)(F)F)(C(F)(F)F)C(O)(C(F)(F)F)C(F)(F)F [Perfluoropinacol]; conditions: in DMSO
Description: as §1

Row | Test System | level (log10) ([1]; 2200 nM) | level (log10) ([1]; 6700 nM) | level (log10) ([1]; 20000 nM) | level (log10) (Nonafluoropentanamide) | level (log10) (Tetrafluorosuccinic acid) | level (log10) [2] | level (log10) [3] | level (log10) ([4]; 740 nM) | level (log10) ([4]; 2200 nM) | level (log10) ([4]; 6700 nM) | level (log10) ([4]; 20000 nM) | level (log10) ([5]; 740 nM) | level (log10) ([5]; 2200 nM) | level (log10) (Octafluoroadipamide) | level (log10) [6] | level (log10) ([7]; 2200 nM) | level (log10) ([7]; 6700 nM) | level (log10) ([7]; 20000 nM) | level (log10) ([7]; 60000 nM) | level (log10) [8] | level (log10) [9] | level (log10) [10] | level (log10) (Perfluoropinacol; 2200 nM) | level (log10) (Perfluoropinacol; 6700 nM) | level (log10) (Perfluoropinacol; 20000 nM)
1 | SAg:CD69 | -0.0285 ± 0.018 | -0.0405 ± 0.043 | -0.035 ± 0.028 | -0.0155 ± 0.00071 | 0.0055 ± 0.086 | -0.0165 ± 0.0035 | 0.0055 ± 0.005 | -0.0165 ± 0.018 | -0.0195 ± 0.023 | -0.0095 ± 0.015 | -0.0335 ± 0.033 | -0.009 ± 0.02 | -0.0295 ± 0.00071 | -0.0065 ± 0.022 | -0.0045 ± 0.019 | -0.0205 ± 0.046 | -0.0245 ± 0.059 | -0.04 ± 0.024 | -0.04 ± 0.0057 | -0.026 ± 0.069 | -0.015 ± 0.016 | -0.0185 ± 0.047 | -0.015 ± 0.0085 | -0.039 ± 0.017 | -0.19 ± 0.033
2 | lMphg:SRB | -0.0025 ± 0.021 | 0.0105 ± 0.0092 | 0.013 ± 0.0042 | 0.0035 ± 0.0078 | -0.014 ± 0.021 | -0.0065 ± 0.0078 | -0.01 ± 0.0085 | -0.0025 ± 0.0092 | -0.0055 ± 0.013 | -0.0035 ± 0.0035 | -0.0105 ± 0.0021 | 0.0035 ± 0.0092 | 0.0015 ± 0.0021 | 0.007 ± 0.024 | -0.0045 ± 0.015 | -0.0045 ± 0.028 | -0.001 ± 0.011 | 0.0125 ± 0.019 | -0.002 ± 0.018 | -0.009 ± 0.0028 | -0.0005 ± 0.005 | -0.011 ± 0.014 | -0.01 ± 0.016 | -0.0315 ± 0.0035 | -0.144 ± 0.0064
3 | LPS:IL-1alpha | 0.0375 ± 0.04 | 0.038 ± 0.017 | 0.025 ± 0.021 | -0.078 ± 0.0014 | 0.0055 ± 0.019 | -0.003 ± 0.0071 | 0.0245 ± 0.012 | -0.0125 ± 0.00071 | -0.111 ± 0.0099 | -0.0515 ± 0.096 | -0.0355 ± 0.023 | 0.024 ± 0.027 | 0.0785 ± 0.039 | -0.034 ± 0.02 | 0.0195 ± 0.036 | 0.039 ± 0.0028 | 0.007 ± 0.011 | 0.0225 ± 0.023 | 0.037 ± 0.05 | 0.0355 ± 0.073 | 0.0035 ± 0.05 | 0.0205 ± 0.023 | 0.0205 ± 0.042 | 0.0305 ± 0.011 | 0.041 ± 0.0014
4 | SAg:CCL2/MCP-1 | -0.005 ± 0.027 | 0.017 ± 0.021 | -0.0055 ± 0.005 | 0.012 ± 0.014 | 0.003 ± 0.044 | -0.0065 ± 0.043 | 0.018 ± 0.0014 | 0.012 ± 0.027 | -0.005 ± 0.014 | -0.014 ± 0.018 | 0.0065 ± 0.033 | 0.0125 ± 0.049 | -0.0045 ± 0.028 | 0.025 ± 0.035 | 0.0025 ± 0.046 | -0.004 ± 0.0099 | -0.019 ± 0.0085 | -0.015 ± 0.0042 | 0.0035 ± 0.019 | 0.006 ± 0.021 | -0.0045 ± 0.028 | -0.003 ± 0.0099 | 0.033 ± 0.0028 | 0.078 ± 0.018 | -0.096 ± 0.0085
5 | 3C:CCL2/MCP-1 | 0.0045 ± 0.06 | 0.015 ± 0.054 | -0.0065 ± 0.037 | 0.016 ± 0.028 | 0.006 ± 0.034 | 0.008 ± 0.037 | 0.0085 ± 0.043 | 0.018 ± 0.065 | -0.007 ± 0.0057 | -0.0145 ± 0.025 | 0.006 ± 0.044 | -0.0125 ± 0.005 | -0.0005 ± 0.012 | 0.0115 ± 0.029 | 0.013 ± 0.011 | 0.0345 ± 0.012 | -0.0095 ± 0.021 | -0.017 ± 0.024 | 0.012 ± 0.0071 | 0.0165 ± 0.0092 | 0.01 ± 0.018 | 0.028 ± 0.014 | 0.035 ± 0.03 | 0.092 ± 0.013 | 0.0445 ± 0.012
